{
  "source": "patent US7615377B2",
  "about": "“Fluorescein-based metal sensors” (Massachusetts Institute of Technology, priority 2003, dated 2009)",
  "test": "Fluorescence response of sensor to Hg^2+ (fluorescence spectroscopy, integrated emission)",
  "type": "binding",
  "details": "2 ppb Hg^2+; FIG. 2 conditions pH 11 (50 mM CABS, 100 mM KCl)",
  "description": "General Spectroscopic Procedures. Ultrol grade PIPES (piperazine-N,N′-bis(2-ethanesulfonic acid) from Calbiochem, KCl (99.997%) and anhydrous HgCl2 (99.998%) were purchased and used as received. Millipore filtered water was used to prepare all aqueous solutions. With the exception of the pKa determination, all spectroscopic measurements were conducted at neutral pH with 50 mM PIPES, 100 mM KCl buffer adjusted to pH 7. An Orion glass electrode, calibrated prior to use, was employed to record solution pH. Mercury solutions were prepared from 10 mM stock solutions of HgCl2. Stock solutions of MS1 (1 mM in DMSO) was prepared, stored at −4° C., and thawed in the dark immediately prior to use. After addition of this stock solution to aqueous buffers, the resulting solution contained 0.1% DMSO for fluorescence and 1% DMSO for absorption measurements. The KaleidaGraph software package was used to manipulate all spectral data.\nFluorescence Spectroscopy. Emission spectra were obtained with a Hitachi F-3010 spectrofluorimeter linked to a Pentium PC running the SpectraCalc software package. A rhodamine quantum counter was used to normalize the spectra for excitation intensity, and manufacturer-supplied correction curves were used to normalize the emission spectra. Manufacturer supplied photomultiplier curves were used to correct for emission intensity. […]",
  "note": "At least one structure is not confirmed: it was looked up by name or label, or the drawing left a doubt.",
  "data": [
    {"smiles": "O=C(O)c1ccccc1-c1c2cc(Cl)c(=O)cc-2oc2c(CN(CCS)Cc3ccccn3)c(O)ccc12", "note": "[sensor 1]", "values": [
      {"measurement": "increase in integrated emission in the presence of 2 ppb of Hg^2+", "result": "~15", "unit": "%"}
    ]}
  ]
}
